Measured values taken from publication PMC11380446.
No constants are given. Whether binding was seen depends on the method and setting. In cells and extracts the contact can be indirect. Here binding means that the protein was enriched with, or labelled near, the bait; the list need not be complete.

By UniProt entry, the sequences of proteins in these tests, tags left out.
UniProt P09874: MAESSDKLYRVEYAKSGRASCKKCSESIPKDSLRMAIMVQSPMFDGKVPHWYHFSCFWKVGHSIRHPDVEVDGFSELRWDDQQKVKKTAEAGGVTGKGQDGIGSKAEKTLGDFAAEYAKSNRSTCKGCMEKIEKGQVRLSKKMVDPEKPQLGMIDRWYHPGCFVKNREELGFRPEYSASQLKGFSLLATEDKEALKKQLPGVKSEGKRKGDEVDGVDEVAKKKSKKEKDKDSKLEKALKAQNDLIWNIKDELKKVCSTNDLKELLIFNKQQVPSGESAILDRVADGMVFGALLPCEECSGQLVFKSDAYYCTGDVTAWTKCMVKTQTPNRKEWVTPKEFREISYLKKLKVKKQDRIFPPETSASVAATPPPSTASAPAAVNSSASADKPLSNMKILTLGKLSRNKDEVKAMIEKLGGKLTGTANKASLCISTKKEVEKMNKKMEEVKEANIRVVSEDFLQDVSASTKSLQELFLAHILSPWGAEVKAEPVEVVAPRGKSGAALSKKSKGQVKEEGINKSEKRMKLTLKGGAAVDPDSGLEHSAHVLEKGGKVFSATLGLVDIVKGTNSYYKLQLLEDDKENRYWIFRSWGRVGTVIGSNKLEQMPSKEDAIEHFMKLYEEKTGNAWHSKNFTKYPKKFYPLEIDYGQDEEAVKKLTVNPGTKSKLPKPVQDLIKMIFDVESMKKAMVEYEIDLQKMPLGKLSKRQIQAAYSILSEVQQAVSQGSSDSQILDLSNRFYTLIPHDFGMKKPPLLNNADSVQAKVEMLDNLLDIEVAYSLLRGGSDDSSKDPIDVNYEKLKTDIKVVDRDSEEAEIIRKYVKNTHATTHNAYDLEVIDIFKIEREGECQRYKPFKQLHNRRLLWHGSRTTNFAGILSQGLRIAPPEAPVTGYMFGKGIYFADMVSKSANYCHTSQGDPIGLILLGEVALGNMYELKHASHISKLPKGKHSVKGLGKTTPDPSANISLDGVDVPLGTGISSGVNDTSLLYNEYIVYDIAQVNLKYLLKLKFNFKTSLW

Target: PARP1 (human (endogenous in SKOV3)) (UniProt P09874)
Test: affinity purification with mass spectrometry; Co-IP for PARP1 followed by MS; cell line not stated

binding: binds
Substance: Ku80 (from UniProt P13010 1-732)
